In PubChem BioAssay AID504847 (National Center for Advancing Translational Sciences (NCATS), 2011):
Out of some 400,000 compounds screened, about 3,700 (0.93%) were called active. The shares of active, inactive and inconclusive entries below differ from those in the screen. Calls come from the whole dose curve; as a rule, active = well fitted inhibition curve with a large enough effect; inconclusive = small, poorly fitted or top-dose-only effect, or another doubt; inactive = no such curve, though single readings can be large or run the other way. A potency beside an inconclusive call is a rough fit, not a confirmed value. A structure can be active in one record and inactive in another.

Chains of the proteins cited; added tags and fusions are not shown. Lines headed by an entry give the natural chain unless they say otherwise; changes in a name come on top.
UniProt P11473: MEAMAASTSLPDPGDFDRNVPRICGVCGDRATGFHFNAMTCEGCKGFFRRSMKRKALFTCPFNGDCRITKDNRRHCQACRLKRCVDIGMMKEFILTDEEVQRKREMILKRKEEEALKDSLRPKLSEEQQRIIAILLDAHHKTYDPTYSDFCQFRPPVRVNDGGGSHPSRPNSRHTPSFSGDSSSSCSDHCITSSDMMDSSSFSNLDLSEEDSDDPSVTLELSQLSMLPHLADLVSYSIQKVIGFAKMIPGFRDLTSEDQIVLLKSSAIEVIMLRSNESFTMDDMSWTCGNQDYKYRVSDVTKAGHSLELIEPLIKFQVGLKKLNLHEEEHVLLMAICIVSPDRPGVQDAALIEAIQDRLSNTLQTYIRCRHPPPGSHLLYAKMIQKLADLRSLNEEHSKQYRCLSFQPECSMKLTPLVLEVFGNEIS

Biological target: Vitamin D3 receptor (Homo sapiens) (UniProt P11473)
Test: Inhibitors of the vitamin D receptor (VDR): qHTS
Details: VDR-SRC2-3 peptide fluorescence polarization, 2 h; max response, negative = inhibition: stronger effect = lower value
Outline: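 After 23 nl compound addition and a short centrifugation, plates sat for 2 hours at ambient temperature; polarization of fluorescence then indicated loss of VDR binding to peptide SRC2-3.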
% is set by controls: 0 for no effect and ±100 for the full control effect; potency is the fitted concentration of half-maximal effect.

Potency, inconclusive:
O=C(c1ccc([N+](=O)[O-])cc1)N1CCN(c2ncc(Br)cn2)CC1 79.4 µM [inhibitor, partial curve], COC(=O)CSc1nnc(-c2ccc(S(=O)(=O)N3CCC(C)CC3)cc2)o1 89.1 µM [inhibitor, single point], O=S1(=O)C=C(Sc2nnc(-c3ccccc3)o2)c2ccccc21 39.8 µM [inhibitor, partial curve, poor fit], Cc1ccccc1C(=O)OC1OC(=O)C(Cl)=C1Nc1ccc(C(=O)O)cc1 (stereo not drawn) 35.5 µM [inhibitor, single point], COc1ccc(C2=Nn3c(nnc3-c3ccccc3F)SC2)cc1OC1CCCC1 15.8 µM [inhibitor, partial curve, poor fit], COc1ccc([C@H]2CC(=O)C=C(c3cccc(C(F)(F)F)c3)C2)cc1 50.1 µM [inhibitor, partial curve, poor fit], CCCCn1c(O)c(/C=C/C=C/C=Nc2ccccc2)sc1=S 89.1 µM [inhibitor, single point], Nc1nc2c(s1)COc1ccccc1-2 79.4 µM [inhibitor, partial curve], O=C(O)Cn1cc(C(=S)N2CCOCC2)c2ccccc21 89.1 µM [inhibitor, single point], COc1cc(/C=C(\C#N)C(=O)Nc2cccc(C(=O)O)c2)ccc1OCc1ccc(F)cc1 25.1 µM [inhibitor, partial curve, poor fit], CCOC(=O)c1cn(CC)c2ccc(S(=O)(=O)N3CC(C)CC(C)C3)cc2c1=O (stereo not drawn) 89.1 µM [inhibitor, partial curve, poor fit], COCC(C)NC(=O)c1cc(-c2cccc(OC)c2)on1 (stereo not drawn) 79.4 µM [inhibitor, partial curve, poor fit], Cc1ccc(C2c3[nH]c4ccccc4c3CCN2C(=O)CCC2CCCC2)cc1 (stereo not drawn) 25.1 µM [inhibitor, single point], Clc1ccccc1-c1nccc(-n2ccnc2)n1 50.1 µM [inhibitor, partial curve], Cc1cnn(C(=S)NCc2ccc(Cl)cc2)c1 56.2 µM [inhibitor, partial curve, poor fit], O=C(COC(=O)CNC(=O)c1ccccc1F)Nc1nnc(-c2ccccc2)o1 22.4 µM [inhibitor, partial curve, poor fit], CCn1cc(/C=N/O)c(C)n1 89.1 µM [inhibitor, single point], OCC[C@H]1C[C@@H](O)[C@H](O)[C@@]2(OCCc3ccccc32)O1 79.4 µM [inhibitor, partial curve, poor fit], Cc1nnc(NC(=O)c2ccc3c(c2)NC(=O)CS3)s1 14.1 µM [inhibitor, partial curve, poor fit], CC1=NN(c2ccccc2)C(=O)/C1=C\c1cn(CCC#N)nc1-c1ccc(Cl)cc1 79.4 µM [inhibitor, partial curve, poor fit], NC(=O)c1ncn([C@@H]2O[C@H](CNCc3cccc4c3sc3ccccc34)[C@@H](O)[C@H]2O)n1 2.82 µM [inhibitor, full curve, poor fit], Cc1sc2nc(-c3ccc(Br)cc3)oc(=O)c2c1C 70.8 µM [inhibitor, partial curve, poor fit], O=c1[nH]c2ccccc2cc1-c1nnn(-c2ccccc2)n1 100 µM [inhibitor, partial curve, poor fit], O=S(=O)(c1ccccc1)c1cnc2ccccc2c1 100 µM [inhibitor, partial curve, poor fit], C=C1c2ccccc2O[C@H](C(=O)OCC)C1OC (mixture of isomers) 141 µM [inhibitor, single point]

Potency, active:
CC[N+]1(C)CCC(O)(/C=C/c2ccccc2)C(C(=O)/C=C/c2ccccc2)C1 (stereo not drawn) 50.1 µM, O=C(NCc1ccccc1)c1ccc(-c2ccccc2C(F)(F)F)o1 112 µM, CC(C(Sc1ccccc1N)c1ccccc1)[N+](=O)[O-] (stereo not drawn) 17.8 µM, CC(=O)N1N=C2/C(=C/c3ccccc3)CCCC2C1c1ccccc1 (stereo not drawn) 70.8 µM, O=c1[nH]cnc(O)c1C1C=CC=CC=C1 39.8 µM, Cc1cccn2c(=O)c3cc(C(N)=S)c(=N)n(CCCOC(C)C)c3nc12 25.1 µM

Max response, negative = inhibition, inactive:
COc1ccc(NC(=O)c2ccc3ccccc3n2)cc1S(=O)(=O)Nc1ccccc1Cl 3.68%, COc1ccc(-c2nn(-c3cccc(F)c3)c3c2cnc2cc(OC)c(OC)cc23)cc1 11.6%, Cc1ccc(C)c(Cn2c(=O)n(CCCC(=O)NCc3ccco3)c(=O)c3ccccc32)c1 -13%, O=C(N/N=C/c1ccc2cccnc2c1)c1ccco1 -9.02%, CCOc1ncccc1C(=O)NNC(=O)c1cccc(S(=O)(=O)Nc2ccc(OC)cc2)c1 -9.36%, COc1cccc(NC(=O)CCN2CCN(c3ccccc3F)CC2)c1 7.38%, Cc1cc(OCC(=O)Nc2cccnc2)c2c(C)cc(=O)oc2c1 6.05%, Cc1ccc(N/N=C/c2ccc(N3CCOCC3)cc2)cc1C -5.1%, O=C(CSc1nc(=O)n2ccccc2n1)N1CCN(c2ccccc2)CC1 9.85%, O=C(Nc1ccccc1N1CCN(C(=O)c2ccc(Cl)cc2)CC1)c1cccc(F)c1 6.67%, CCc1cccc(C)c1NC(=S)NCC1CCN(c2ccc(OC)cc2)C1 (stereo not drawn) -7.73%, CN(Cc1ccc(Cl)c(Cl)c1)C(=O)c1cccc(S(=O)(=O)N2CCN(Cc3ccccc3)CC2)c1 5.22%
